The campaign covered roughly 31,000 sequences. About 1,400 (4.5%) were called active.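 How the source made its calls: active means median seed-adjusted z-score above 1 or below -1; inactive means the rest.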 This is one part of the list.
Experiment: Novel Modifiers of Survival Motor Neuron (SMN) Protein: Gene Identification via Genome-wide siRNA Screen;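 further: luminescence tracks full-length SMN protein made from the SMN2 reporter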
Conditions: HEK293T SMN2-luciferase reporter, siRNA knockdown, 72 h; actives lie on both sides
Method in brief: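 siRNA screen, 10418 genes ×3 siRNAs; 1 pmol/well, lipid reverse transfection into HEK293T SMN2-luc reporter line. 72 h, 37 °C, 5% CO2; ONE-Glo readout. Data: neg-ctrl normalized, log10, MAD; hit = MAD >1.0 or < -1.0.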

Row | Sequence | median seed-adjusted z-score
1 | CGGCUUUUAUGGACGAGUUTT against STX3 | inactive: 0.686
2 | GCCCAGACCUUCAUAAGUUTT against APH1B | inactive: -0.135
3 | GGAAAGAGAACGAAUCGAATT against PPM1D | inactive: -0.66
4 | GGUCCAAAGGGAUCAGGAATT against EMR2 | inactive: 0.0569
5 | GCAUAGACACCAUCAUCAATT against GCLC | inactive: -0.21
6 | GUCAAUAUGUUUACAAGUUTT against GATA5 | inactive: 0.15
7 | CGAAGACUGUCUGAGACAATT against GPR52 | active: -1.17
8 | AGACUUUGUUGUUACACUUTT against SYPL1 | inactive: -0.457
9 | UGCCGGUGCUGGACAGUUUTT against RASSF4 | inactive: 0.29
10 | CCUCCAUAUGGAUUACUGUTT against GPR139 | inactive: 0.0111
11 | GAAAAUUGCUCACUUUGAUTT against DAPK2 | inactive: 0.268
12 | GGCUUUUGAGCAUCCCAAUTT against CDK4 | inactive: 0.346
13 | GCAACGUGCUUGUCAUGUUTT against OPRD1 | inactive: 0.314
14 | CCAUAUCGAAUAAUAAUGATT against SCRT1 | inactive: -0.483
15 | GCUCGAGUGGAAGAACUCATT against GLMN | inactive: 0
16 | GCAGGGCAACUCAAAGAAUTT against NR1D1 | inactive: -0.301
17 | AGACGAUUGAGUCCAUAAATT against SMARCD3 | inactive: 0.247
18 | GGUCAAUACACCUAAGAAATT against PRDX1 | inactive: 0.288
19 | GAUUGUUGUUGAAACAACATT against SPG7 | inactive: -0.293
20 | GCAUCGUUUCUAUGAACUUTT against KCNB2 | active: 1.22
21 | GCUCACCUACCAACAGCAATT against CD300LB | inactive: -0.466
22 | GCCUCGGAAUACUACAAGATT against GPSM2 | inactive: -0.755

Two entries from above, as a markdown table:

| Row | Sequence | median seed-adjusted z-score |
| --- | --- | --- |
| 8 | AGACUUUGUUGUUACACUUTT against SYPL1 | inactive: -0.457 |
| 9 | UGCCGGUGCUGGACAGUUUTT against RASSF4 | inactive: 0.29 |

Continuation:

Row | Sequence | median seed-adjusted z-score
23 | CGACGGCUCCUACCUCAAUTT against FGFRL1 | inactive: -0.111
24 | GGAAGAAUGUGGUUUGCGATT against GFOD2 | inactive: -0.0447
25 | GGAUUCCUAUUUACUCAAATT against MCF2 | inactive: 0.51
26 | GUAGAGAGGUUGAACGUGUTT against FPR3 | inactive: -0.605
27 | CGUUCACCCUGAAUUUUGUTT against CLCN7 | inactive: -0.28
28 | GCUCUAGGCUUAUUAGACATT against ZNF10 | inactive: 0
29 | GGUUCACUUUGAUAGUACUTT against CLCA4 | inactive: 0.186
30 | GGACGGUCACAGUGCUAUUTT against PANK2 | inactive: 0.121
31 | CCCAUUUGCUCUUUACCUATT against NMBR | inactive: 0.32
32 | GGGUGUUUCGUUCCCUUUATT against HSPA1B | inactive: 0.302
33 | AACUCUCGCUACUACCUGATT against SEMA7A | inactive: 0.0522
34 | GGAUCCACAUGGUGAACAATT against CA7 | inactive: -0.0754
35 | GGACAAGUGAGGUCGAUGATT against MAK | inactive: 0.22
36 | GAAGAUUUCUUGAAGCUUUTT against CREB3L4 | inactive: 0.229
37 | CAACAACACCUGUUCAGCATT against KIF1A | inactive: 0.318
38 | CCUUCCAACUUGAACGGAATT against ANGPT2 | inactive: -0.163
39 | CGUUGAUUGCUGCAAGGCATT against AFG3L2 | inactive: 0.117
40 | UCGCAAAGGUGAACACUCATT against PIN1 | inactive: 0.156
41 | CUACUUAGAUGAUAACCAATT against NUP98 | inactive: 0.168
42 | GAACAACUCUUGUGAGAUUTT against STC2 | inactive: -0.00039
43 | GGAUUUGUUUGAGUACGAATT against CDC2L6 | inactive: -0.31
44 | GGUCUACCAAGAGACAUCATT against MLF2 | inactive: -0.312

Row | Sequence | median seed-adjusted z-score
45 | GUGAUAAUGUUACAGUGCATT against DMTF1 | inactive: 0.396
46 | CACUUUACUUCGAGAAGUATT against SLC25A15 | inactive: -0.0116
47 | GGCCUUACAGGGACAAGUATT against SFTPD | inactive: 0.289
48 | CAAGUACUUUGCAGAGGCATT against SULT1A2 | inactive: 0.0541
49 | GAACAUCGAUGGGAAGGAATT against ERG | inactive: 0.629
50 | CGAAUAAUGAUAGGACUAATT against SLC2A12 | inactive: -0.373
51 | CAACCAGACGGAGUGCUUUTT against SEMA4G | inactive: 0.188
52 | GAUUUGUACCCACUACUAUTT against ENPP5 | inactive: -0.0499
53 | GGAAGUCGCAGAUCCUGAATT against TSHZ3 | inactive: 0.301
54 | AGAGGAAGUUCGCAGUGGATT against ZNF688 | inactive: -0.475
55 | AGACCGAGGAGUUCAACGATT against KLF4 | inactive: 0.883
56 | GGCUUGAGUUCAUUCAGAATT against PKN3 | inactive: 0.476
57 | CCAAGUCCAAUGCACCUGUTT against KCTD15 | inactive: 0.982
58 | GGACCGGUCACAGAAGGAATT against ZNF446 | inactive: 0.0496
59 | CCCUUUGAGAUGUAAGUUUTT against MPZ | inactive: 0.337
60 | ACUUGACCCAGACCCUUCATT against ZSCAN2 | inactive: -0.428
61 | GCACUGGAGAAGUAUGUGATT against ALOX12B | inactive: 0.0071
62 | CAGCGUGCAUUUUCACUAATT against AKAP11 | inactive: -0.0405
63 | GGCAAGAUCUGUACCGUGATT against HPN | inactive: -0.0237
64 | UGACCUCGAUGAAACCCUUTT against CTDSP2 | inactive: 0.498
65 | CUAGUGAUCUUUUAGAGUUTT against CSGALNACT2 | inactive: 0.236
66 | AGACAGACGAUGCUACUUUTT against GSC | inactive: 0.17

Row | Sequence | median seed-adjusted z-score
67 | GAUCAAAGCUGGUGACCAUTT against CD300A | inactive: -0.414
68 | CCAUCGAGAGUUCCGGUUUTT against BMP7 | inactive: -0.893
69 | CCAUUGAAAGGAUGAAAGATT against CYP3A43 | inactive: -0.599
70 | GCAACAUCGUGUUCUUGAATT against GAL3ST1 | inactive: 0.263
71 | CAUCCCUAAUCUUCACCAATT against LRP8 | inactive: -0.547
72 | GAACGGCUUCAGUUAUUGATT against MLLT10 | inactive: -0.147
73 | GGCUCAACACGAUGCUUGATT against TGFBI | inactive: 0
74 | CCGACACGCUCUACAAUAATT against BRUNOL6 | inactive: -0.542
75 | CGUUUAACGACUUACAGGATT against RAP1A | inactive: 0.276
76 | CCAACAUCGAGAUGAUUGATT against CTTN | inactive: -0.314
77 | CGUGUACAAGGCUCUAACATT against EPN3 | inactive: 0.184
78 | GAUCUGAGCUUGUACAGAATT against PSMC2 | active: -1.96
79 | GAAGGAAUUUCAUUUGACATT against DHX38 | inactive: -0.723
80 | CCACCAUCCUGUACAACUUTT against TP73 | inactive: 0.353
81 | GGGACAUACUCAUGGACAATT against ZSCAN16 | inactive: -0.274
82 | GUGGGAGUCGGGACAUAUATT against MAFK | active: 1.73
83 | CCUGCACUCCGUGAAUGAATT against QSOX1 | inactive: -0.154
84 | GGUAUUACGUUUUGUCAAATT against RAB5B | inactive: 0.299
85 | GAAUUUCCAGAAGUCACUATT against KIF9 | inactive: 0
86 | CCAGAGAUUUAUCAACUUUTT against NPL | inactive: -0.0324
87 | CUACCCACCUGAGACUGCATT against SMYD5 | inactive: -0.217
88 | CGUCAAAAGAGCCCAUAAATT against ENPP5 | inactive: -0.0499

Shown as comma-separated lines: part of the list above
Row,Sequence,median seed-adjusted z-score
68,CCAUCGAGAGUUCCGGUUUTT against BMP7,inactive: -0.893
69,CCAUUGAAAGGAUGAAAGATT against CYP3A43,inactive: -0.599
70,GCAACAUCGUGUUCUUGAATT against GAL3ST1,inactive: 0.263
71,CAUCCCUAAUCUUCACCAATT against LRP8,inactive: -0.547
72,GAACGGCUUCAGUUAUUGATT against MLLT10,inactive: -0.147

(further entries)

Row | Sequence | median seed-adjusted z-score
89 | CAAAGAGGGUUGUCCGUGATT against LYZ | inactive: -0.0538
90 | CAGAAAGUGUUGAUAUUAUTT against THUMPD2 | inactive: -0.129
91 | GGACUGCACUACUCCAUGATT against ADAMTS2 | inactive: -0.338
92 | CAAUAUCAAGAAUCUAGUUTT against RBP4 | inactive: 0.0208
93 | GGAUCUUUCUGGAUCGCAUTT against IMPG1 | inactive: -0.252
94 | GGGCUUAUUUUGUGAGAAUTT against ZBTB6 | inactive: -0.225
95 | GACAAUAUCGGAUCGAUAUTT against CEBPZ | inactive: 0.301
96 | UGAUUAUCUUCACACCUAATT against OGDHL | inactive: -0.0878
97 | GGACCUCUCUCUUACCAGUTT against MSX1 | inactive: 0.757
98 | GUGUAUCGGUGAGACCAUUTT against CYP1A1 | inactive: 0.124
99 | GGAAGAAAGCGGGACUUUUTT against PPME1 | inactive: 0.342
100 | GGACUCAGCAGGAUACAAUTT against FOXJ2 | inactive: -0.627
101 | GCUCGUUGGGACCAACUAATT against DYNC2H1 | inactive: -0.613
102 | GCCUUAACCCAGAUGCACATT against GPR128 | inactive: -0.208
103 | AGAGAGAGAUUAUCACAUUTT against MYH7 | inactive: 0.659
104 | CCUAUGAUGUGCUAAGUGATT against DNAJB5 | inactive: -0.444
105 | GCGACUUCAUGAUAGCAUATT against CAMK2D | inactive: 0.0676
106 | AAAUGACCCUGUUACCAACTT against RXRG | inactive: 0.16
107 | UGACAGUGCUACAUCCUUUTT against AICDA | inactive: 0.289

— PubChem BioAssay AID1347426 (Functional Genomics Laboratory (NCATS/FGL), 2020)
